# Source: PMC7048395
# The chains behind the UniProt entries cited, without tags or fusion partners. Where a name states a change or a piece, a line headed by the entry shows the natural chain unless it says otherwise.
# UniProt P0C0S5: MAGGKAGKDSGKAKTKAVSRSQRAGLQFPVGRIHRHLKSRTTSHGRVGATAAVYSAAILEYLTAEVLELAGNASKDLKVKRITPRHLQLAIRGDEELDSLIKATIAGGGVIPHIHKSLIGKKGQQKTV
# UniProt Q7Z5J4: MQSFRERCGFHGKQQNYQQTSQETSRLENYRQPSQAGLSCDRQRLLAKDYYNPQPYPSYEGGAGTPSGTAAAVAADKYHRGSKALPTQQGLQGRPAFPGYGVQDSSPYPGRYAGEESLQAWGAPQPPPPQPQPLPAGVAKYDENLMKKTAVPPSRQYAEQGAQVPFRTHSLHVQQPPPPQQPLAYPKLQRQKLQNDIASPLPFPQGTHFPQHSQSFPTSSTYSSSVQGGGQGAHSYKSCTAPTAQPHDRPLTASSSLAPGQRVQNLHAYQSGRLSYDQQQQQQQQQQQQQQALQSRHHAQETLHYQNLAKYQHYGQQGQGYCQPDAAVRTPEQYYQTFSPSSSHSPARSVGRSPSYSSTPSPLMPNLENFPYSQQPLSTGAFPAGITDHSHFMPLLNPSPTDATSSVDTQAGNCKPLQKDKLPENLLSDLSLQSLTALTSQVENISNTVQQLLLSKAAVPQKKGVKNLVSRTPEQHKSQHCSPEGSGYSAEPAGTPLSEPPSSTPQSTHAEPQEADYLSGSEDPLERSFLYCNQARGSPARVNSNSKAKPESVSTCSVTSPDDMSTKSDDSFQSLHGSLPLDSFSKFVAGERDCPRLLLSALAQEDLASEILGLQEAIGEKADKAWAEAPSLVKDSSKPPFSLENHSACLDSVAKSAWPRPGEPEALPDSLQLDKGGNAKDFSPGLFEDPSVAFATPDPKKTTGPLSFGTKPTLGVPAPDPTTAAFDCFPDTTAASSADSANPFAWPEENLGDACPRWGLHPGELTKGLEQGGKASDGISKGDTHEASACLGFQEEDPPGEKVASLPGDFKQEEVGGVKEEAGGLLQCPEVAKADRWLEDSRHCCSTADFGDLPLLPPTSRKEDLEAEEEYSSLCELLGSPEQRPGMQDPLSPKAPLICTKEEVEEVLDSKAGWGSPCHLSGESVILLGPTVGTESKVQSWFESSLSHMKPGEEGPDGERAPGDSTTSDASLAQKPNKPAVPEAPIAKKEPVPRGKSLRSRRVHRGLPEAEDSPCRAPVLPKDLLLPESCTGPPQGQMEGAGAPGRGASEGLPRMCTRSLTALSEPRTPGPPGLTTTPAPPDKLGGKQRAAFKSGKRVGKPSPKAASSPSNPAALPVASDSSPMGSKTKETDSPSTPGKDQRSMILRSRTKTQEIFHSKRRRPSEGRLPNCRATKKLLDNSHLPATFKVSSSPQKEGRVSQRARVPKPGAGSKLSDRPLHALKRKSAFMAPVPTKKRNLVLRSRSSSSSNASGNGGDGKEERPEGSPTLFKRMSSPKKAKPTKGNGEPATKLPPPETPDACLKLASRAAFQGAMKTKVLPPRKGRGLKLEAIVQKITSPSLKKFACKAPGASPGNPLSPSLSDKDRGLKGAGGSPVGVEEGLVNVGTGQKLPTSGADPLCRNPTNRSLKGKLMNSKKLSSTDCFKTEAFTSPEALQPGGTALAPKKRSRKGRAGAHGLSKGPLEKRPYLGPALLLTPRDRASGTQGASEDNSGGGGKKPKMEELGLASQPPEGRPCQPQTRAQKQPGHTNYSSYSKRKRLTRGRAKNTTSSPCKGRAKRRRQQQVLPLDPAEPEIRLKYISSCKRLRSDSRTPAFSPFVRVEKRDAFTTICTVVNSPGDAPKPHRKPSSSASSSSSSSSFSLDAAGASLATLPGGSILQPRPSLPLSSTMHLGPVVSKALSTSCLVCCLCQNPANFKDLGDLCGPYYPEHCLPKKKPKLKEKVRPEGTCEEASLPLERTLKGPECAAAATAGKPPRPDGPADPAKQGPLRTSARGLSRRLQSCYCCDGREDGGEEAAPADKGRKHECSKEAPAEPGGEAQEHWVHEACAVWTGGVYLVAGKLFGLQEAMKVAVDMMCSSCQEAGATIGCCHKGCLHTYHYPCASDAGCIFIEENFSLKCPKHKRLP
# UniProt Q9UGU0: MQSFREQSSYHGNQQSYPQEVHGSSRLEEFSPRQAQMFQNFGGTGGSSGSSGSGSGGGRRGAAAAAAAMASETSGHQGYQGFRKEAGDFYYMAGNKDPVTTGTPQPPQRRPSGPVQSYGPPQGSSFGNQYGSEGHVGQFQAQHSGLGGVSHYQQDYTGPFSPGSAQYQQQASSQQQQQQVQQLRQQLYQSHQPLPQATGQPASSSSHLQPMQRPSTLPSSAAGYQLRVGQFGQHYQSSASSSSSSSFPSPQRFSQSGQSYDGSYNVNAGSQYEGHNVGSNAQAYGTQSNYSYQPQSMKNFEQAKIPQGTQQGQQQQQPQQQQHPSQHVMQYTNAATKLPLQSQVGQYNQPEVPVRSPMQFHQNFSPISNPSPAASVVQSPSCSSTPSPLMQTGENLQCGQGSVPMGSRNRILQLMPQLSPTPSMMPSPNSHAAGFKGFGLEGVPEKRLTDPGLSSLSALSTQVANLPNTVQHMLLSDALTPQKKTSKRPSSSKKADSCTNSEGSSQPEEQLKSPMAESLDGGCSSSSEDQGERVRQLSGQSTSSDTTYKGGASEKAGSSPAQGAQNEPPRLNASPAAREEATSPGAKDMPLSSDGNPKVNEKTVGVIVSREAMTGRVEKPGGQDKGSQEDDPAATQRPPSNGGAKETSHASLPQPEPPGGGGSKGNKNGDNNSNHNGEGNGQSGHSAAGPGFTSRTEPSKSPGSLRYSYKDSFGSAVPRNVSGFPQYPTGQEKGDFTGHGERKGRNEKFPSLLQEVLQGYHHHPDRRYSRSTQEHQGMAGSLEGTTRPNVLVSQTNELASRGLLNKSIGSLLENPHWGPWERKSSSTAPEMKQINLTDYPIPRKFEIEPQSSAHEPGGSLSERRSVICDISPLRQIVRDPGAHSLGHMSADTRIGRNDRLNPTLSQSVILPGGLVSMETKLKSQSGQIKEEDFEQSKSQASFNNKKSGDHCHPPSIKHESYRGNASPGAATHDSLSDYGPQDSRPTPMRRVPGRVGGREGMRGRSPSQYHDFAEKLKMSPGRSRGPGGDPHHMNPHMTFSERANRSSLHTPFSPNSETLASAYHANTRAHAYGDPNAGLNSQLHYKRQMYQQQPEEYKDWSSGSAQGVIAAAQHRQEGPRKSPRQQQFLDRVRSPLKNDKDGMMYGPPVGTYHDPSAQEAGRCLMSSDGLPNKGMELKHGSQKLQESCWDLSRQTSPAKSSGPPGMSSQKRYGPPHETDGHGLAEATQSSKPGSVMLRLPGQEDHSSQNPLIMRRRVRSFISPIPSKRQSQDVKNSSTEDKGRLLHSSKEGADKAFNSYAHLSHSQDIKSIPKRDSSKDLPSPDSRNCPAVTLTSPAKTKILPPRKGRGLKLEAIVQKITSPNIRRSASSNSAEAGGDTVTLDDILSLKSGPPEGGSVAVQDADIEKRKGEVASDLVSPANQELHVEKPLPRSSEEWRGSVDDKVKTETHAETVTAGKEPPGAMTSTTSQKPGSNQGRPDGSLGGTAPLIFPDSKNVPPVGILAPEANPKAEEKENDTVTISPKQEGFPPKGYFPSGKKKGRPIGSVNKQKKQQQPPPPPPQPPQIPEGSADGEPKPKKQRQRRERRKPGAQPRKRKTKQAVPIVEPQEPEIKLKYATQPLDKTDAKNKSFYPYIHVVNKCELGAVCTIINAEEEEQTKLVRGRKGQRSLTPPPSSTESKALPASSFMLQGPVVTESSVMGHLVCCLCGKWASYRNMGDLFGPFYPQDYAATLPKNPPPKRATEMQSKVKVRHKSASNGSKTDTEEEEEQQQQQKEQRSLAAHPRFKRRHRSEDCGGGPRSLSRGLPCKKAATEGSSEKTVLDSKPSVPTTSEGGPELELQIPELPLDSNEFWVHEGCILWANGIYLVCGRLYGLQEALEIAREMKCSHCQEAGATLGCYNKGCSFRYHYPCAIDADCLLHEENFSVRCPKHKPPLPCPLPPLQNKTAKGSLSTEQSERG
# These are yes or no findings as the source states them, for the method shown. In cells and extracts the contact can be indirect. Here binding means that the protein was enriched with, or labelled near, the bait; the list need not be complete.
# B1: PHF14 (endogenous, K562) (protein, UniProt O94880 1-948)
# chain: MDRSSKRRQVKPLAASLLEALDYDSSDDSDFKVGDASDSEGSGNGSEDASKDSGEGSCSDSEENILEEELNEDIKVKEEQLKNSAEEEVLSSEKQLIKMEKKEEEENGERPRKKKEKEKEKEKEKEKEKEREKEKEKATVSENVAASAAATTPATSPPAVNTSPSVPTTTTATEEQVSEPKKWNLRRNRPLLDFVSMEELNDMDDYDSEDDNDWRPTVVKRKGRSASQKEGSDGDNEDDEDEGSGSDEDENDEGNDEDHSSPASEGGCKKKKSKVLSRNSADDEELTNDSLTLSQSKSNEDSLILEKSQNWSSQKMDHILICCVCLGDNSEDADEIIQCDNCGITVHEGCYGVDGESDSIMSSASENSTEPWFCDACKCGVSPSCELCPNQDGIFKETDAGRWVHIVCALYVPGVAFGDIDKLRPVTLTEMNYSKYGAKECSFCEDPRFARTGVCISCDAGMCRAYFHVTCAQKEGLLSEAAAEEDIADPFFAYCKQHADRLDRKWKRKNYLALQSYCKMSLQEREKQLSPEAQARINARLQQYRAKAELARSTRPQAWVPREKLPRPLTSSASAIRKLMRKAELMGISTDIFPVDNSDTSSSVDGRRKHKQPALTADFVNYYFERNMRMIQIQENMAEQKNIKDKLENEQEKLHVEYNKLCESLEELQNLNGKLRSEGQGIWALLGRITGQKLNIPAILRAPKERKPSKKEGGTQKTSTLPAVLYSCGICKKNHDQHLLLLCDTCKLHYHLGCLDPPLTRMPRKTKNSYWQCSECDQAGSSDMEADMAMETLPDGTKRSRRQIKEPVKFVPQDVPPEPKKIPIRNTRTRGRKRSFVPEEEKHEERVPRERRQRQSVLQKKPKAEDLRTECATCKGTGDNENLVRCDECRLCYHFGCLDPPLKKSPKQTGYGWICQECDSSSSKEDENEAERKNISQELNMEQKNPKK
# Target: endogenous H2A.Z.1 tagged with 3xFlag-2xStrep (K562, heterozygous clone) (human (endogenous in K562)) (UniProt P0C0S5)
# Experiment: affinity purification with mass spectrometry; tandem affinity purification of endogenously 3xFlag-2xStrep-tagged H2A.Z isoform from K562 soluble nuclear extracts: anti-FLAG M2 resin, washes at 300 mM and 150 mM KCl, 3xFLAG peptide elution, Strep-Tactin Sepharose, biotin elution; fractions analysed by silver-stained gel, mass spectrometry (two replicates for each bait) and western blot; non-tagged cell line as mock
row,binding,Molecule
1,binds,RAI1 (from UniProt Q7Z5J4 1-1906)
2,binds,TCF20 (from UniProt Q9UGU0 1-1960)
3,binds,B1
